Results deposited as PubChem BioAssay AID504771 (Drosophila RNAi Screening Center, 2011).
Purpose: 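Genes whose knock-down alters aggregation of mutant huntingtin with 46 glutamines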 (follow-up of hits). Cells: Drosophila S2 cells with copper-inducible mutant huntingtin exon 1 (46 glutamines)-eGFP. Knock-down reagent: long dsRNA against Drosophila genes, 250 ng dsRNA per well. Duration: 3 days of knock-down, then 2 days of copper induction before fixing. Treatment: copper sulfate at 400 µM to switch on Htt-Q46-eGFP expression. Measurement: 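Per-well count, size and brightness of GFP aggregates from automated images, set against plate mean and SD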. Hit rule: 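Primary candidate if any aggregate measure lay more than 2 SD from the plate mean; active only if it then passed checks for off-target effects, reproducibility, independent dsRNAs and a promoter counter-screen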. Calls: active = confirmed modifier; inactive = primary candidate not confirmed.
This is not the whole library: the list holds selected reagents. 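All genes were primary candidates; inactive means validation failed, not no effect; aggregate scores behind calls are not deposited.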 A plus sign joins genes that one reagent is predicted to hit.

Depletion of NELF-B [DRSC17734] gave: aggregation phenotype knock-down raises aggregates; active.
Mtr3 [DRSC10953] scored aggregation phenotype knock-down lowers aggregates; inactive.
Silencing of Ge-1 [DRSC02938] gave: aggregation phenotype knock-down raises aggregates; inactive.
For nonC [DRSC18367], the entry reads active.
Depletion of SCAP [DRSC04907] gave: aggregation phenotype knock-down lowers aggregates; inactive.
Depletion of Muc4B [DRSC18062] came out at: aggregation phenotype knock-down raises aggregates; inactive.
With knock-down of Nelf-E [DRSC10567] the results were aggregation phenotype knock-down raises aggregates; active.
After knock-down of alphaTub84B [DRSC12622], the screen gave aggregation phenotype knock-down lowers aggregates; inactive.
Pabp2 [DRSC07501] scored aggregation phenotype knock-down lowers aggregates; inactive.
Knock-down of Wdr33 [DRSC12162] came out at: aggregation phenotype knock-down lowers aggregates; inactive.
TfIIFalpha [DRSC12608] gave aggregation phenotype knock-down lowers aggregates; inactive.
For pont [DRSC17029], the values are aggregation phenotype knock-down lowers aggregates; inactive.
After knock-down of PCID2 [DRSC10822] the results were aggregation phenotype knock-down lowers aggregates; inactive.
Cul1 [DRSC07645] scored aggregation phenotype knock-down raises aggregates; inactive.
Knock-down of Ran [DRSC20364] gave: aggregation phenotype knock-down lowers aggregates; inactive.
Silencing of Got1 [DRSC07177] came out at: aggregation phenotype knock-down lowers aggregates; active.

Quoted from the listing for reference:
Pabp2 [DRSC07501]: aggregation phenotype = knock-down lowers aggregates; activity call = inactive
Wdr33 [DRSC12162]: aggregation phenotype = knock-down lowers aggregates; activity call = inactive
TfIIFalpha [DRSC12608]: aggregation phenotype = knock-down lowers aggregates; activity call = inactive
pont [DRSC17029]: aggregation phenotype = knock-down lowers aggregates; activity call = inactive
PCID2 [DRSC10822]: aggregation phenotype = knock-down lowers aggregates; activity call = inactive
Cul1 [DRSC07645]: aggregation phenotype = knock-down raises aggregates; activity call = inactive
Ran [DRSC20364]: aggregation phenotype = knock-down lowers aggregates; activity call = inactive

The results go on:
Knock-down of CG7394 [DRSC10835] gave: aggregation phenotype knock-down raises aggregates; inactive.
For CG31386 (retired record) [DRSC22769], the entry reads aggregation phenotype knock-down raises aggregates; inactive.
CG31111 [DRSC14649] showed aggregation phenotype knock-down lowers aggregates; active.
Upf2 [DRSC18218] scored aggregation phenotype knock-down raises aggregates; active.
With knock-down of bab1 [DRSC08709], the screen gave aggregation phenotype knock-down lowers aggregates; inactive.
Depletion of CG13739 [DRSC06410] resulted in: aggregation phenotype knock-down lowers aggregates; inactive.
After knock-down of VhaSFD [DRSC03471] the results were aggregation phenotype knock-down raises aggregates; inactive.
RpS15Aa + RpS15Ab [DRSC06129] showed aggregation phenotype knock-down lowers aggregates; inactive.
Against RpS15Aa + RpS15Ab [DRSC19831] the deposit lists aggregation phenotype knock-down lowers aggregates; inactive.
With knock-down of CG14104 [DRSC10106] the results were aggregation phenotype knock-down lowers aggregates; inactive.
Knock-down of IntS11 [DRSC15407] resulted in: aggregation phenotype knock-down raises aggregates; active.
Silencing of crn [DRSC18184] gave: aggregation phenotype knock-down lowers aggregates; inactive.
crn [DRSC18185] gave aggregation phenotype knock-down lowers aggregates; inactive.
crn [DRSC18755] scored aggregation phenotype knock-down lowers aggregates; active.
Silencing of Ino80 [DRSC15333] gave: aggregation phenotype knock-down raises aggregates; inactive.
After knock-down of CG2063 [DRSC06811] the results were aggregation phenotype knock-down lowers aggregates; inactive.
With knock-down of Hsp83 [DRSC08664], the record shows aggregation phenotype knock-down raises aggregates; active.
With knock-down of Pitslre [DRSC23346], the screen gave aggregation phenotype knock-down lowers aggregates; inactive.
For srp [DRSC17068], the entry reads aggregation phenotype knock-down lowers aggregates; inactive.
CG18210 (retired record) [DRSC19089] showed aggregation phenotype knock-down lowers aggregates; inactive.
Against Tango6 [DRSC02671], the entry reads aggregation phenotype knock-down lowers aggregates; active.
Knock-down of Rrp46 [DRSC15537] resulted in: aggregation phenotype knock-down lowers aggregates; inactive.
velo [DRSC08841] showed aggregation phenotype knock-down lowers aggregates; inactive.
With knock-down of velo [DRSC09698], the screen gave aggregation phenotype knock-down lowers aggregates; inactive.
With knock-down of Cbp20 [DRSC16601], the screen gave aggregation phenotype knock-down lowers aggregates; inactive.
Depletion of ACC [DRSC07249] resulted in: aggregation phenotype knock-down lowers aggregates; inactive.
For Karybeta3 [DRSC12355], the values are aggregation phenotype knock-down lowers aggregates; active.
Silencing of CycT [DRSC11124] came out at: aggregation phenotype knock-down lowers aggregates; inactive.
CycT [DRSC23304] showed aggregation phenotype knock-down lowers aggregates; inactive.
Cchl [DRSC15949] scored aggregation phenotype knock-down lowers aggregates; inactive.
For CycH [DRSC21308], the values are aggregation phenotype knock-down lowers aggregates; inactive.
